Taken from: PubChem BioAssay AID1053208 (Peter MacCallum Cancer Centre, 2014)
In all, the deposit lists about 17,000 reagents; below is a random part of them. Of all reagents, 788 (4.7%) got an active call. 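Calls rest on z-score classes alone; an extra cut-off of viability at most 70% of control was not applied to them.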 The numbers tell different reagents against one gene apart. Not all columns of the deposit are shown. No sequences are given here.

Test: 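Find knock-downs that sensitise mouse osteosarcoma cells to doxorubicin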 (primary screen)
System: mouse osteosarcoma cells, early-passage culture from an engineered mouse model of fibroblastic bone tumour
Knock-down reagent: siRNA pool against mouse genes, 40 nM
Timing: about 120 h (48 h before drug, then 72 h with drug)
Treatment: doxorubicin 100 nM for 72 h, roughly 30-40% inhibitory dose
Measured: 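Luminescent ATP signal taken as viability with or without 100 nM doxorubicin for 72 h; mean of two wells set against non-targeting siRNA and turned into robust z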
Reading the numbers: viability z-score with doxorubicin: higher = more viable cells under doxorubicin; viability z-score without drug: higher = more viable cells with knock-down alone; z-score of drug to no-drug ratio: higher = less drug sensitisation by knock-down
Rule for the call: 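Called active if knock-down leaves viability unchanged without drug (z within -2 to 2) but lowers it with doxorubicin (z at or under -2)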

target	reagent	combined z-score class	viability z-score with doxorubicin	viability z-score without drug	z-score of drug to no-drug ratio	outcome
Sval1	1	no change with or without drug	-0.45	0	-0.34	inactive
Ppargc1a	1	no change with or without drug	-0.67	0.84	-1.12	inactive
Ppargc1a	2	no change with or without drug	0.11	-0.67	0.67	inactive
Nup155	1	low cell count with and without drug	-4.16	-6.91	0.9	inactive
Amfr	1	no change with or without drug	0.22	-0.51	0.67	inactive
Slc1a4	1	no change with or without drug	-0.22	-0.17	0	inactive
Tsnax	1	no change with or without drug	-1.8	-1.52	-0.79	inactive
Cbx8	1	no change with or without drug	-0.11	0.17	-0.11	inactive
Lhfpl6	1	no change with or without drug	-1.12	-0.17	-1.01	inactive
Nbl1	1	no change with or without drug	1.8	-0.51	2.47	inactive
Snapc3	1	no change with or without drug	-1.01	-1.01	-0.22	inactive
Or5w8	1	no change with or without drug	-0.79	0.17	-0.79	inactive
Or10ab5	1	no change with or without drug	0.9	0.51	0.67	inactive
Or4a72	1	no change with or without drug	0.45	-0.51	1.01	inactive
Saa1	1	no change with or without drug	1.12	-0.51	1.69	inactive
Slc51b	1	no change with or without drug	-1.35	-0.51	-1.01	inactive
Zscan20	1	no change with or without drug	-1.8	0.34	-2.02	inactive
Itga2	1	no change with or without drug	0	-0.17	0.22	inactive
Fip1l1	1	no change with or without drug	0.9	0.51	0.67	inactive
Prkcsh	1	no change with or without drug	-0.22	0.17	-0.22	inactive
5830411J07Rik	1	no change with or without drug	0.79	-0.84	1.57	inactive
Helt	1	no change with or without drug	1.35	1.18	0.67	inactive
Tufm	1	no change with or without drug	-0.67	-0.84	0	inactive
Klra19	1	no change with or without drug	0.22	0.84	-0.22	inactive
Sh3bp5l	1	no change with or without drug	0.11	0.34	0	inactive
9230101D24	1	no change with or without drug	-0.67	0	-0.56	inactive
Vps25	1	no change with or without drug	0.67	1.01	0.11	inactive
Gramd4	1	no change with or without drug	0.56	0.67	0.22	inactive
Eif2b4	1	no change with or without drug	-0.79	-0.84	-0.11	inactive
Scn5a	1	no change with or without drug	0.22	0.51	0	inactive
Cyp4a12b	1	no change with or without drug	0.67	0.84	0.22	inactive
Htr5a	1	no change with or without drug	0.22	-1.69	1.69	inactive
Pde3b	1	no change with or without drug	0.11	1.35	-0.67	inactive
Golga3	1	no change with or without drug	0.67	0.51	0.45	inactive
Or9q2	1	no change with or without drug	-0.56	-0.51	-0.11	inactive
Cyp2b13	1	no change with or without drug	0.22	0.17	0.22	inactive
Uvrag	1	no change with or without drug	-0.22	0.34	-0.34	inactive
Or8b9	1	no change with or without drug	1.12	1.52	0.22	inactive
Klra22	1	no change with or without drug	0.56	1.01	0	inactive
Cfap410	1	low cell count with doxorubicin only	-2.47	0.84	-2.92	active
Rtn4r	1	no change with or without drug	-0.9	-0.67	-0.34	inactive
Cat	1	no change with or without drug	1.57	0.51	1.35	inactive
Pnpla3	1	no change with or without drug	-0.67	-1.18	0.22	inactive
Pax3	1	no change with or without drug	0.11	-0.17	0.34	inactive
Or6c3b	1	no change with or without drug	-1.57	-1.52	-0.56	inactive
Laptm4b	1	no change with or without drug	0.34	1.85	-0.67	inactive
Fam178b	1	no change with or without drug	0	0.51	-0.22	inactive
Dusp23	1	low cell count with doxorubicin only	-2.25	-1.52	-1.35	active
Tubgcp4	1	low cell count with doxorubicin only	-2.14	-1.52	-1.24	active
Nlrp4a	1	high cell count without drug only	0.9	2.87	-0.79	inactive
Nos1	1	no change with or without drug	1.12	0.17	1.12	inactive
Rab3gap2	1	no change with or without drug	0.79	-0.84	1.57	inactive
Slc5a11	1	no change with or without drug	-1.8	-0.51	-1.46	inactive
Zmynd11	1	no change with or without drug	-0.22	0.17	-0.22	inactive
Krtcap3	1	no change with or without drug	-1.57	-1.01	-0.9	inactive
Or5p73	1	no change with or without drug	-1.12	-0.67	-0.67	inactive
Bag3	1	no change with or without drug	0.11	0.84	-0.34	inactive
Mcf2	1	no change with or without drug	0.56	-0.67	1.24	inactive
Irf5	1	no change with or without drug	-0.45	1.01	-1.01	inactive
Bace2	1	no change with or without drug	-1.8	-0.51	-1.46	inactive
Sgta	1	no change with or without drug	0.45	-0.17	0.67	inactive
Gabre	1	no change with or without drug	1.12	0.84	0.67	inactive
Larp6	1	no change with or without drug	0.22	0.51	0	inactive
